# Laboratory results reported in patent US9625458B2, “Biosensor” (priority 2002, dated 2017).
# Substitutions are numbered along the chain they refer to. In names and notes the source's numbering stands.
# B1: Fe(III) BP E203C-acrylodan (conjugate, UniProt P35755 24-332, looked up, variant E203C)
# Iron-utilization periplasmic …: DITVYNGQHKEAATAVAKAFEQETGIKVTLNSGKSEQLAGQLKEEGDKTPADVFYTEQTATFADLSEAGLLAPISEQTIQQTAQKGVPLAPKKDWIALSGRSRVVVYDHTKLSEKDMEKSVLDYATPKWKGKIGYVSTSGAFLEQVVALSKMKGDKVALNWLKGLKENGKLYAKNSVALQAVENGEVPAALINNYYWYNLAKCKGVENLKSRLYFVRHQDPGALVSYSGAAVLKASKNQAEAQKFVDFLASKKGQEALVAARAEYPLRADVVSPFNLEPYEKLEAPVVSATTAQDKEHAIKLIEEAGLK
# modifications: acrylodan label
# B2: Fe(III) BP K85C Fluorescein (conjugate, UniProt P35755 24-332, looked up, variant K85C)
# Iron-utilization periplasmic …: B1 Iron-utilization periplasmic … with K85C, C203E
# modifications: fluorescein label
# B3: Fe(III) BP E203C NBD (conjugate, UniProt P35755 24-332, looked up, variant E203C)
# Iron-utilization periplasmic …: B1 Iron-utilization periplasmic …
# modifications: NBD label
# B4: Fe(III) BP V287C Fluorescein (conjugate, UniProt P35755 24-332, looked up, variant V287C)
# Iron-utilization periplasmic …: B1 Iron-utilization periplasmic … with C203E, V287C
# modifications: fluorescein label
# B5: Fe(III) BP K85C JPW4039 (conjugate, UniProt P35755 24-332, looked up, variant K85C)
# Iron-utilization periplasmic …: B1 Iron-utilization periplasmic … with K85C, C203E
# modifications: JPW4039 dye label
# B6: Fe(III) BP E203C Acrylodan (conjugate, UniProt P35755 24-332, looked up, variant E203C)
# Iron-utilization periplasmic …: B1 Iron-utilization periplasmic …
# modifications: acrylodan label
# B7: Fe(III) BP K202C Fluorescein (conjugate, UniProt P35755 24-332, looked up, variant K202C)
# Iron-utilization periplasmic …: B1 Iron-utilization periplasmic … with K202C, C203E
# modifications: fluorescein label
# B8: Fe(III) BP K202C JPW4039 (conjugate, UniProt P35755 24-332, looked up, variant K202C)
# Iron-utilization periplasmic …: B1 Iron-utilization periplasmic … with K202C, C203E
# modifications: JPW4039 dye label
# B9: Fe(III) BP K85C NBD (conjugate, UniProt P35755 24-332, looked up, variant K85C)
# Iron-utilization periplasmic …: B1 Iron-utilization periplasmic … with K85C, C203E
# modifications: NBD label
# B10: Fe(III) BP E203C JPW4039 (conjugate, UniProt P35755 24-332, looked up, variant E203C)
# Iron-utilization periplasmic …: B1 Iron-utilization periplasmic …
# modifications: JPW4039 dye label
# B11: Fe(III) BP V287C NBD (conjugate, UniProt P35755 24-332, looked up, variant V287C)
# Iron-utilization periplasmic …: B1 Iron-utilization periplasmic … with C203E, V287C
# modifications: NBD label
# B12: Fe(III) BP K85C JPW4042 (conjugate, UniProt P35755 24-332, looked up, variant K85C)
# Iron-utilization periplasmic …: B1 Iron-utilization periplasmic … with K85C, C203E
# modifications: JPW4042 dye label
# B13: Fe(III) BP V287C JPW4039 (conjugate, UniProt P35755 24-332, looked up, variant V287C)
# Iron-utilization periplasmic …: B1 Iron-utilization periplasmic … with C203E, V287C
# modifications: JPW4039 dye label
# B14: Fe(III) BP E203C Fluorescein (conjugate, UniProt P35755 24-332, looked up, variant E203C)
# Iron-utilization periplasmic …: B1 Iron-utilization periplasmic …
# modifications: fluorescein label
# B15: Fe(III) BP K202C Acrylodan (conjugate, UniProt P35755 24-332, looked up, variant K202C)
# Iron-utilization periplasmic …: B1 Iron-utilization periplasmic … with K202C, C203E
# modifications: acrylodan label
# B16: histidine BP E167C Pyrene (conjugate, UniProt P0AEU0 23-260, looked up, variant E167C)
# Histidine-binding periplasmic …: AIPQNIRIGTDPTYAPFESKNSQGELVGFDIDLAKELCKRINTQCTFVENPLDALIPSLKAKKIDAIMSSLSITEKRQQEIAFTDKLYAADSRLVVAKNSDIQPTVESLKGKRVGVLQGTTQETFGNEHWAPKGIEIVSYQGQDNIYSDLTAGRIDAAFQDEVAASCGFLKQPVGKDYKFGGPSVKDEKLFGVGTGMGLRKEDNELREALNKAFAEMRADGTYEKLAKKYFDFDVYGG
# modifications: pyrene label
# B17: histidine BP Y88C Pyrene (conjugate, UniProt P0AEU0 23-260, looked up, variant Y88C)
# Histidine-binding periplasmic …: B16 Histidine-binding periplasmic … with Y88C, C167E
# modifications: pyrene label
# B18: histidine BP K229C Pyrene (conjugate, UniProt P0AEU0 23-260, looked up, variant K229C)
# Histidine-binding periplasmic …: B16 Histidine-binding periplasmic … with C167E, K229C
# modifications: pyrene label
# B19: histidine BP Y230C Pyrene (conjugate, UniProt P0AEU0 23-260, looked up, variant Y230C)
# Histidine-binding periplasmic …: B16 Histidine-binding periplasmic … with C167E, Y230C
# modifications: pyrene label
# B20: histidine BP V163C Pyrene (conjugate, UniProt P0AEU0 23-260, looked up, variant V163C)
# Histidine-binding periplasmic …: B16 Histidine-binding periplasmic … with V163C, C167E
# modifications: pyrene label
# Assay: Fluorescence emission spectra without and with saturating ligand (wavelength shift, ΔIstd, ΔRmax)
# Details: apo vs saturating ligand at λstd
# Experimental: Fluorimetry. All measurements were conducted with an SLM Aminco-Bowman series 2 fluorimeter, with sample stirring at 25° C. Fluorescence emission spectra were acquired with excitation and emission slit widths of 4 and 8 nm, respectively. Photomultiplier tube potential was maintained between 400 and 800 volts. Protein concentrations were in the range of 50 to 1000 nM. Fluorophore-specific excitation was at the following approximate wavelengths: tryptophan, 290 nm; acrylodan, 390 nm; fluorescein, 485 nm; pyrene, 340 nm; NBD and NBDE, 490 nm; JPW4039, 485 nm; JPW4042, 470 nm; JPW4045, 470 nm.
# Assessment of fluorescent biosensor function. Fluorescence emission spectra of bPBP-fluorophore conjugates were recorded in the absence and presence of saturating ligand concentrations. Spectral changes were characterized by four parameters: wavelength shift (the difference between the wavelengths of emission maximum in the unbound and ligand-saturated states), direction of intensity change (increase or decrease in intensity at the wavelengths of maximum emission in the two states), standard intensity change (ΔIstd), and standard ratiometric change (ΔR). ΔIstd is defined as the normalized intensity change relative to the average intensity, determined at the wavelength mid-point between the two emission maxima:
# [formula] where λstd=(λmax, unbound+λmax, saturated)/2 and I1, I2 are the fluorescence intensities at λstd of each spectrum respectively (FIG. 4A). ΔR is defined in terms of two emission bands, A1 ([λ1, λ2]) and A2 ([λ3, λ4]) (FIG. 4B):
# [formula] where ^∘A1, […] the areas in the absence of ligand, and ^∞A1, ^∞A2 the areas in the presence of saturating ligand. A computer program was used to enumerate ΔR for all possible pairs of wavelength bands in the two spectra, to identify the optimal sensing condition, defined as the maximum value of ΔR. Adjustable parameters of the algorithm, and their values used for ΔRmax quantities reported here, are: step size (2 nm), step width (10 nm), minimum integration area limit (fraction of total: 0.1), and maximum integration area limit (fraction of total: 1).
row,Molecule,ΔIstd (standard intensity change)
1,B1,0.4

# Same assay, conditions: emission maximum, absence of ligand
row,Molecule,"λmax,apo (nm)"
1,B2,519
2,B3,550
3,B4,521
4,B5,593
5,B6,518
6,B7,520
7,B8,602
8,B9,545
9,B10,599
10,B11,551
11,B12,638
12,B13,596
13,B14,523
14,B15,505
15,B16,384
16,B17,384
17,B18,384
18,B19,384
19,B20,384

# Same assay, conditions: emission maximum, saturating ligand (ligand column)
row,Molecule,"λmax,sat (nm)"
1,B2,520
2,B3,548
3,B4,520
4,B5,591
5,B6,518
6,B7,521
7,B8,602
8,B9,543
9,B10,592
10,B11,552
11,B12,641
12,B13,595
13,B14,522
14,B15,503
15,B16,384
16,B17,384
17,B18,384
18,B19,384
19,B20,384

# Same assay, conditions: standard intensity change, unbound vs ligand-saturated
row,Molecule,ΔIstd
1,B2,0.01
2,B3,0.31
3,B4,0.21
4,B5,0.05
5,B6,0.41
6,B7,0.30
7,B8,0.24
8,B9,0.08
9,B10,0.09
10,B11,0.05
11,B12,0.03
12,B13,0.13
13,B14,0.33
14,B15,0.37
15,B16,0.21
16,B17,0.15
17,B18,0.16
18,B19,0.22
19,B20,0.08

# Same assay, conditions: standard ratiometric change, unbound vs ligand-saturated
row,Molecule,ΔRmax
1,B2,0.03
2,B3,0.21
3,B4,0.05
4,B5,0.10
5,B6,0.95
6,B7,0.09
7,B8,0.36
8,B9,0.12
9,B10,0.37
10,B11,0.11
11,B12,0.28
12,B13,0.59
13,B14,0.15
14,B15,1.17
15,B16,1.13
16,B17,0.44
17,B18,0.73
18,B19,0.75
19,B20,0.78
